Data published in patent US20200140512A1.
These are yes or no findings as the source states them, for the method shown.

Molecular target: cynomolgus PD-1-His (cynomolgus monkey)
Assay: Octet, antibody captured on anti-human Fc (AHC) biosensors, dipped into multiple concentrations of PD-1-His

B1: XENP28519 (bivalent mAb based on humanized mAb A) (antibody, human IgG1, kappa, V domains shown)
VH: QVQLQESGPGLVKPSQTLSLTCTVSGHSITSDYAWNWIRQPPGKKLEWIGYISYSGYTTYNPSLKSRVTISRDTSKNQFSLKLSSVTAADTAVYFCARDLDYGPWFAYWGQGTLVTVSS
VL: DIQMTQSPSSLSASVGDRVTITCRASENIHNYLAWYQQKPGKSPKLLVYNVKTLADGVPSRFSGSGSGTDYTLTISSLQPEDFATYYCQHFWSSPWTFGGGTKVEIKR
Question: B1 was tested. Which binding did it give?
Answer: The binding was “no binding”.
